Results published in article doi:10.1101/2021.05.05.442785 (bioRxiv, 2021).
Results are given in words; binding and its absence hold for the method and conditions named. Binding seen in cells or lysates may run through a third protein. Some entries that bind do so weakly or less than the wild type. Tags and fused reporters may be left off the sequences shown.

Biological target: T1, S-adenosylmethionine lyase (SAMase) of bacteriophage T3, C-terminal His-tagged (bacteriophage T3) (UniProt P07693)
T1 sequence: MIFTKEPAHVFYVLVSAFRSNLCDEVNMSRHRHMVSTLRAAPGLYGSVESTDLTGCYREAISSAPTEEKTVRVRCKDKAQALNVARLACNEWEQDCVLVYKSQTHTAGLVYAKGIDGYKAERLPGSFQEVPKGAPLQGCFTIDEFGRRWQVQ
Experiment: pull-down

B1: E. coli methionine S-adenosyltransferase (MAT), endogenous (enzyme, UniProt P0A817 1-384)
chain: MAKHLFTSESVSEGHPDKIADQISDAVLDAILEQDPKARVACETYVKTGMVLVGGEITTSAWVDIEEITRNTVREIGYVHSDMGFDANSCAVLSAIGKQSPDINQGVDRADPLEQGAGDQGLMFGYATNETDVLMPAPITYAHRLVQRQAEVRKNGTLPWLRPDAKSQVTFQYDDGKIVGIDAVVLSTQHSEEIDQKSLQEAVMEEIIKPILPAEWLTSATKFFINPTGRFVIGGPMGDCGLTGRKIIVDTYGGMARHGGGAFSGKDPSKVDRSAAYAARYVAKNIVAAGLADRCEIQVSYAIGVAEPTSIMVETFGTEKVPSEQLTLLVREFFDLRPYGLIQMLDLLHPIYKETAAYGHFGREHFPWEKTDKAQLLRDAAGLK
- binding: binds
